Measured values reported in article PMC7338359.
Results are given in words; binding and its absence hold for the method and conditions named. In cells and extracts the contact can be indirect. A yes stands for co-enrichment or nearness to the bait. Other partners may have been found. Tags and fused reporters may be left off the sequences shown.

Amino acid sequences for entries named in this document (tags omitted).
UniProt Q13547: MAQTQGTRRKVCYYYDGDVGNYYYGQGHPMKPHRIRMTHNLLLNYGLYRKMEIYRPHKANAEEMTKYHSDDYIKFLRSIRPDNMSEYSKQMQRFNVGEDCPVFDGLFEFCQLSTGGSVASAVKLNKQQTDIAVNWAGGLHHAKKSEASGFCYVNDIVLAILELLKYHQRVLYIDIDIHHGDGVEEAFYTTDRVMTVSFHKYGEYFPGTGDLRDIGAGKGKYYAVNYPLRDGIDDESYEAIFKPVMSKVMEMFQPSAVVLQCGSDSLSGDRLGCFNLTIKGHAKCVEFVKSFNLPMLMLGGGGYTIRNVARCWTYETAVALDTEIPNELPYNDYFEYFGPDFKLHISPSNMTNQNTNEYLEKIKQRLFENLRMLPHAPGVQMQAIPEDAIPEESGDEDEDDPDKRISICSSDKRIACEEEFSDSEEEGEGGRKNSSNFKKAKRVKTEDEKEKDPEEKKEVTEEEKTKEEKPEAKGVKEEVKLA

Target: T1, GFP-tagged PAICS (phosphoribosylaminoimidazole carboxylase, phosphoribosylaminoimidazole succinocarboxamide synthetase) (UniProt P22234)
T1 sequence: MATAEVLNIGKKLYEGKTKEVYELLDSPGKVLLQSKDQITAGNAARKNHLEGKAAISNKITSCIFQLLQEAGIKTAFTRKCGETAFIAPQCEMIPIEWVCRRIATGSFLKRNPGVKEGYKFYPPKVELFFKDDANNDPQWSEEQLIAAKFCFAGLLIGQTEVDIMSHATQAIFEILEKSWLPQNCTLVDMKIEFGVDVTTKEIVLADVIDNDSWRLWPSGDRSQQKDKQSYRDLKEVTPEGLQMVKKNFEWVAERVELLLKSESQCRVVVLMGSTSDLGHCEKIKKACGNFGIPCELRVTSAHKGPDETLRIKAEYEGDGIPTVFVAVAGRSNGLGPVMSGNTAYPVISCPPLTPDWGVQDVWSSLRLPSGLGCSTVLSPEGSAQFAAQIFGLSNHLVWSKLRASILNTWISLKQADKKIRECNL
Assay: affinity purification with mass spectrometry; HEK293T cells transfected with GFP-vector or GFP-PAICS, with or without CDDP (10 µg/mL for 12 h, 2-h recovery); lysates immunoprecipitated with anti-GFP, SDS-PAGE, coomassie stain, mass spectrometric analysis

binding: binds
Substance: histone deacetylase HDAC1, endogenous in HEK293T cells (from UniProt Q13547 1-482) (enzyme)
